{
  "source": "patent US7589121B2",
  "about": "“Use of furan alkyls for preparing a drug for treating obesity and cosmetically treating overweight” (priority 2004, dated 2009)",
  "key": {"[1]": {"tested_on": "mice fattened on a high fat/high sucrose diet (HF/HS)", "assay": "Body temperature and energy expenditure (indirect calorimetry)", "type": "in vivo"}, "[2]": {"tested_on": "mice fattened on a high fat/high sucrose diet (HF/HS)", "assay": "Food intake of mice on HF/HS diet", "type": "in vivo", "details": "for Food: HF/HS diet, TZD 10 mg/kg/dy"}},
  "data": [
    {"smiles": "CN(CCOc1ccc(CC2SC(=O)NC2=O)cc1)c1ccccn1", "note": "(stereo not shown) [TZD, Rosiglitazone]", "values": [
      {"measurement": "Body temperature", "setting": "[1]; curative group", "value": "Slight increase"},
      {"measurement": "Body temperature", "setting": "[1]; preventive group", "value": "no change"},
      {"measurement": "Energy expenditure (calorimetry)", "setting": "[1]; weeks 21 and 22", "value": "no change"},
      {"measurement": "food intake", "setting": "[2]; curative group, TZD, control group 4 g", "value": 3, "unit": "g"},
      {"measurement": "Food", "setting": "[2]; curative", "value": "↓"},
      {"measurement": "mean food consumption", "setting": "[2]; preventive group, TZD (ditto)", "value": 3, "unit": "G"},
      {"measurement": "Food", "setting": "[2]; preventive", "value": "↓"}
    ]}
  ]
}
